## Primary screen of a compound library

The chains behind the UniProt entries cited, without tags or fusion partners.
UniProt P9WFT3, whole entry: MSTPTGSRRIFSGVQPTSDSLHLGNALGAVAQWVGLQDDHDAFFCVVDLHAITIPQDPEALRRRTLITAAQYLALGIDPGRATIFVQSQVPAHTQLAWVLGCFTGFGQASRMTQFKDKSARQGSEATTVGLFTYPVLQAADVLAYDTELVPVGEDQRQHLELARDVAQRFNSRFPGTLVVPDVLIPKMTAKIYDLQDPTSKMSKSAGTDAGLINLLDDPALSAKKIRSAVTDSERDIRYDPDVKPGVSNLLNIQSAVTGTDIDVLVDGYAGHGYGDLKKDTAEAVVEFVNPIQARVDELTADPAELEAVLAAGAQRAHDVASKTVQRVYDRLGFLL

A: 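Enzyme assay of tryptophanyl-tRNA synthetase; the read-out is not stated. Target: Tryptophan-tRNA ligase, Mycobacterium tuberculosis (UniProt P9WFT3). Concentration: 10 µM. Direction is not recorded; retested compounds ran higher, which suggests that high means inhibition. About 65,000 compounds were tested under these conditions; 0.098% (about 64) showed 50% or more at least once.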
B: 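Cell assay of Leishmania donovani living inside macrophages; the read-out is not stated. Tested at 30 µM. Higher reads as stronger inhibition (inferred: compounds with an IC50 in retests scored well above the rest). Of about 69,000 compounds tested this way, about 1,000 (1.5%) reached 50% or more in at least one test.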

Results are given as percent effect. How 0% and 100% were set is not recorded. Most values in the screen are low, and negative values occur. This is an unselected part of the compounds tested. Two or more numbers in one place are separate tests of the same structure; such repeats can differ widely. A dash means the value is not listed here; it may have been measured.

structure,A,B
O=C(O)C(F)(F)F.O=C(O)C(F)(F)F.[H][C@]12C[C@H](C(=O)NC)N(C(C)=O)[C@@]1([H])CN(Cc1cccnc1OC)C2,-,11.45
CN(C)c1cc(CNC(=O)Nc2ccc(C#N)cc2)ccn1,-4.011,33.51
Cc1cccc(-c2ncc(CNC(C)Cc3ncccc3C)cn2)c1 (stereo not shown),12.22,-19.51
Cc1nccn1CCC1CCN(c2ncccn2)CC1,-2.894,-12.32
COc1ccc(C)nc1NC(=O)CCc1c(C)nn(C)c1C,15.64,4.82
Cn1nc(C(C)(C)C)cc1NC(=O)Cn1ccnc1,-1.127,-6.293
O=C(CO)N1CCCn2nnc(Cn3cccn3)c2C1,21.64,2.177
Cc1cc(C)nc(Nc2cccc(C3CCCN(C)C3)n2)n1 (stereo not shown),1.087,-
CC(C)N1CCCC2(CCN(C(=O)CCCn3cccn3)C2)C1=O (stereo not shown),2.187,8.503
Cc1ccc(-c2nc(CNC3CCc4ncnn4C3)cs2)cc1 (stereo not shown),4.545,29.75
O=C(OCc1cccs1)c1cccc(C(=O)N2CCCC2)n1,-4.31,3.746
O=C(O)C(F)(F)F.O=C(O)C(F)(F)F.c1ccc(CN2CCc3ncnc(C4CC4)c3CC2)nc1,-,36.93
Cc1ccc(-c2cn[nH]c2C2CCCN(c3cc(N)ncn3)C2)cc1 (stereo not shown),3.047,35.82
NCC1(c2cccc(C(F)(F)F)c2)CC1,8.476,-14.99
Cc1ccc(CN2CC(C(=O)NCC3CC3)C3(CCOCC3)C2)s1 (stereo not shown),1.847,-
CSc1ccccc1NC(=O)C1CSc2ncc(C)c(=O)n2C1 (stereo not shown),2.549,1.293 & 21.92
O=C1[C@H]2CN(Cc3ccoc3)C[C@H]2CN1Cc1cccnc1,-10.45,-
Cc1cc(C)n(CC2CN(Cc3nc(-c4ccco4)no3)CCO2)n1 (stereo not shown),-0.807,12.22
CC(C)n1nc2c(cc1=O)CN(Cc1nc(-c3ccco3)no1)CC2,-4.159,24.57
COc1ccccc1N1CCN(C(=O)CCn2nnnc2C)CC1(C)C,-7.273,25.25
CNC(=O)c1cccc(CN2CCN(c3ccncc3)CC2)c1,-0.6431,2.881
O=C(c1cn(Cc2ccc(Cl)cc2)nn1)N1CCCO1,3.185,-4.465
Cc1noc(C(C)C)c1C(=O)NCCC(=O)N1CCCCC1,-6.962,19
CCc1ncc(CN2CCC(CCc3ccccc3)CC2)cn1,2.202,12.98
CC(C)c1nnc2n1CCN(C(=O)c1cc3cc(F)ccc3[nH]1)C2,6.329,5.593
FC(F)(F)CCc1ccnc(NCc2csc(N3CCOCC3)n2)n1,-0.09633,25.46
Cc1ccc(Cn2cc(C)c(N)n2)cc1,-,22.07
CC1CCN(C(=O)Cc2ccc(S(=O)(=O)C(F)F)cc2)CC1,-4.974,4.146
Cc1noc(C)c1CN1C[C@H](OCC(=O)N(C)C)[C@H]2OCCC[C@H]21,-3.787,-
CC1c2ncc(Cn3cncn3)n2CCN1C(=O)C1CCOCC1 (stereo not shown),3.253,19.92
CC(C(=O)N1CCc2ccccc21)N1CCc2cncnc2C1 (stereo not shown),2.235,29.98
COCc1cnc2n1CCN(C(=O)c1cc3cc(Cl)ccc3o1)C2C (stereo not shown),1.063,19.03
O=C(CCCNC(=O)C1CC1)Nc1cnn(-c2ccccc2Cl)c1,0.2915,29.11
Cc1cccnc1N1CC2(CCN(Cc3cccnc3)C2)C1,-3.779,-
CCc1ccccc1C(=O)N1CCCC1CC(=O)c1cnn(C)c1 (stereo not shown),-0.4259,1.982
Cc1cc(C(=O)N2CCC[C@]3(C[C@H](OCC4CC4)CO3)C2)no1,-5.317,33.61
O=C(NCc1ccccc1)N1CCC2(CC(=O)N(c3ccccc3)C2)C1 (stereo not shown),-1.658,-1.438
Cc1cc(N2CCCC2(C)c2nc(C)cc(C(=O)N(C)C)n2)ncn1 (stereo not shown),-5.529,13.89
Cc1nn(C(C)C)c(C)c1NC(=O)c1ccncc1,3.372,12.96
O=C(Cc1ccccc1)N1CC(=O)N(Cc2ccco2)CC(O)C1 (stereo not shown),-,-5.558
Cl.Cl.O[C@@H]1C[C@@](CNCc2ccc(F)cc2)(COc2cccnc2)C[C@@H]1O,-,12.44
CN1N=C(C(=O)N(Cc2ccco2)C2CCCC2)CCC1=O,4.181,-10.44
NC(=O)C1CN(Cc2c(O)ccc3oc4c(c23)CCCC4)CCO1 (stereo not shown),1.528,24.24
CC(=O)N1CCC(N2CC[C@H](c3nc4cc(C)ccc4o3)C2)CC1,-2.517,22.67
O=C1N(c2cccc(Cl)c2)Cc2nc(=O)[nH]n21,2.632,14.48
N#Cc1cccc(N2CCC(CO)(CCOc3ccccc3)CC2)n1,-1.089,-32.72
COc1ccccc1-n1nc(C(C)C)nc1Cc1nnc(N)s1,-6.735,37.1
Cc1nc(-c2ccccc2)n(CC(=O)N(C(C)C)C(C)C)n1,4.147,31.18
Cc1ccc(C2CCCCCN2Cc2cn(C)nc2C)cc1 (stereo not shown),-2.977,26.47
Cc1csc(CN(CC2CCCO2)C(=O)c2occc2C)n1 (stereo not shown),-2.055,15.3
COCC1CN(Cc2ccoc2)Cc2nn(CC3CC3)cc21.O=C(O)C(F)(F)F (stereo not shown),-,10.29
CN(C)[C@@H]1CCN(c2ncc(F)cn2)[C@H]1Cc1cccnc1.O=C(O)C(F)(F)F.O=C(O)C(F)(F)F,-,17.82
CNC(=O)c1ccc(=O)n(Cc2csc(C(C)(C)C)n2)c1,-5.676,0.4832
O=C(NCC1CCS(=O)(=O)C1)c1ccc(NC(=O)c2ccco2)cc1 (stereo not shown),4.387,-14.45
COc1ccc(C(C(=O)O)N2CCC(Cn3cccn3)CC2)c(OC)n1 (stereo not shown),-1.493,-6.097
Cc1ccccc1C1CCN(CCn2cc(-c3nccn3C)nn2)C1 (stereo not shown),1.342,-6.124

For reference, 3 entries once more:

With O=C(NCc1ccccc1)N1CCC2(CC(=O)N(c3ccccc3)C2)C1 (stereo not shown) the screen gave A: -1.658%; B: -1.438%.
With Cc1cc(C(=O)N2CCC[C@]3(C[C@H](OCC4CC4)CO3)C2)no1 the screen gave A: -5.317%; B: 33.61%.
With CC1c2ncc(Cn3cncn3)n2CCN1C(=O)C1CCOCC1 (stereo not shown) the screen gave A: 3.253%; B: 19.92%.

The values are deposited in ChEMBL (CHEMBL3988442, “University of Dundee, Small-Polar-MMV Screening Library” (2021)).